Results deposited as PubChem BioAssay AID1671195 (Yale University, 2021)

Test: 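Regulators of LDL receptor activity judged by labelled LDL uptake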 (primary screen)
Cells: human Huh7 hepatoma cells
Reagent: siRNA pool against human genes, 18 nM
Timing: about 2 to 2.5 days of knockdown, then 8 h LDL uptake
Treatment: DiI-labelled LDL at 30 µg/ml for 8 h, in lipoprotein-deficient serum medium
Detection: 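Per-cell DiI-LDL intensity by automated imaging; well means scaled to the plate median and given as a robust z-score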
Scale: robust z-score: higher = more LDL uptake after knockdown
Call rule: 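Active when two or more replicates show a robust z-score above 2 or below -2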
Shown is an unselected part of about 22,000 reagents. About 1,510 of them (6.9%) were called active. 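Active includes knockdowns raising or lowering LDL uptake; positive z-scores mean more uptake, negative mean less.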 Reagents against one gene are numbered here.

Which result is listed for POLR2MP1 (POLR2M pseudogene 1)?
robust z-score, replicate 1: -0.193; robust z-score, replicate 2: 0.256; robust z-score, replicate 3: 0.334; call: inactive

What did the screen give for TAF9B (TATA-box binding protein associated factor 9b)?
robust z-score, replicate 1: -0.658; robust z-score, replicate 2: -0.994; robust z-score, replicate 3: -0.812; call: inactive

With SURF2 (surfeit 2), how do the results read?
robust z-score, replicate 1: 1.55; robust z-score, replicate 2: 1.75; robust z-score, replicate 3: 1.92; call: inactive

For BCL2L14 (BCL2 like 14), how do the results read?
robust z-score, replicate 1: -0.713; robust z-score, replicate 2: -1.26; robust z-score, replicate 3: -1.07; call: inactive

With DLGAP1 (DLG associated protein 1) #1, how do the results read?
robust z-score, replicate 1: -0.636; robust z-score, replicate 2: -0.719; robust z-score, replicate 3: -0.355; call: inactive

For DLGAP1 (DLG associated protein 1) #2, what was measured?
robust z-score, replicate 1: -1.93; robust z-score, replicate 2: -0.927; robust z-score, replicate 3: -1.71; call: inactive

With LOC391088 (retired record), how do the results read?
robust z-score, replicate 1: 0.425; robust z-score, replicate 2: 0.544; robust z-score, replicate 3: 0.181; call: inactive

With PLD1 (phospholipase D1), what does the deposit list?
robust z-score, replicate 1: -1.07; robust z-score, replicate 2: -0.612; robust z-score, replicate 3: -0.743; call: inactive

What did the screen give for RRP1 (ribosomal RNA processing 1)?
robust z-score, replicate 1: 0.746; robust z-score, replicate 2: -1.36; robust z-score, replicate 3: -0.657; call: inactive

Which result is listed for GLYATL2 (glycine-N-acyltransferase like 2)?
robust z-score, replicate 1: -1.45; robust z-score, replicate 2: -0.932; robust z-score, replicate 3: -1.14; call: inactive

For ANAPC5 (anaphase promoting complex subunit 5), what was measured?
robust z-score, replicate 1: -2.09; robust z-score, replicate 2: -1.94; robust z-score, replicate 3: -2.69; call: active

With KCNS1, how do the results read?
robust z-score, replicate 1: 0.013; robust z-score, replicate 2: 0.765; robust z-score, replicate 3: 1.55; call: inactive

Quoted from the listing (2 entries):
TAF9B (TATA-box binding protein associated factor 9b) — robust z-score, replicate 1 = -0.658; robust z-score, replicate 2 = -0.994; robust z-score, replicate 3 = -0.812; call = inactive
SURF2 (surfeit 2) — robust z-score, replicate 1 = 1.55; robust z-score, replicate 2 = 1.75; robust z-score, replicate 3 = 1.92; call = inactive
